PubChem BioAssay AID2685 (National Center for Advancing Translational Sciences (NCATS), 2010)
This is one part of the list. Shown are side measurements of this screen, not its main read-out; they come without a call. The list favours compounds with an active or inconclusive main result. The note in brackets gives the kind of curve behind each potency; many fits are weak.

Assay: qHTS Assay for Lipid Storage Modulators in Drosophila S3 Cells;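 on cell number change: cells counted by Cell Tracker Red CMTPX staining in the red channel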
Conditions: BODIPY lipid droplet fluorescence, 18-24 h; for cell number change: measured here: cell count max response, cells fed with added oleic acid
Procedure, shortened: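 Drosophila S3 cells got compounds at several concentrations plus oleic acid (400 uM solution). Laser-scanning cytometry with 488 nm excitation read lipid droplets at 500-530 nm and cells at 575-640 nm. Percent activity was relative to 20 uM Triacsin C.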

[1] = measured here: lipid fluorescence (Fed channel) AC50, cells fed with added oleic acid
[2] = measured here: cell number channel AC50, cells fed with added oleic acid

| Structure (SMILES) | cell number change | AC50 [1] | AC50 [2] |
| --- | --- | --- | --- |
| COCCn1c(=N)c(S(=O)(=O)c2ccc(Br)cc2)cc2c(=O)n3ccccc3nc21 | 14.5% | 29.1 µM [rising, single point] |  |
| COc1cccc(N(C(=O)c2csnn2)C(C(=O)NC2CCCC2)c2ccccc2)c1 (stereo not drawn) | 25.6% |  |  |
| CCN1CN(Cc2ccco2)CNC1=S |  | 4.61 µM [falling, single point] | 1.64 µM [falling, partial curve] |
| O=C(Nc1ccc(F)c(F)c1)C1CCN(S(=O)(=O)c2cccs2)CC1 | -20.2% | 0.231 µM [falling, full curve] |  |
| COCCn1nnnc1C(CC(C)C)N1CCN(c2cccc(OC)c2)CC1 (stereo not drawn) | 36.5% |  | 18.4 µM [rising, single point] |
| COc1ccc(C(C(=O)NC2CCCC2)N(C(=O)c2ccco2)c2ccccc2C(C)=O)cc1OC (stereo not drawn) | -10.3% | 5.8 µM [falling, partial curve] |  |
| Cn1c(Cc2ccccc2)nnc1SCc1nc2ccccc2c(=O)[nH]1 |  | 0.58 µM [rising, full curve] | 1.3 µM [rising, partial curve] |
| CCN(CC)C(=O)c1[nH]cnc1C(=O)NCCCCCNC(=O)OC(C)(C)C | 5.54% | 29.1 µM [rising, single point] |  |
| COc1cc(N)ccc1C(=O)O | -5.98% | 5.8 µM [falling, single point] | 6.51 µM [falling, single point] |
| NS(=O)(=O)c1ccc(NC(=O)/C(=C/c2ccncc2)NC(=O)c2ccccc2)cc1 | -0.451% |  |  |
| O=C(Nc1cc(-c2ccccc2)cs1)c1ccco1 | -19.7% |  |  |
| CC(=O)c1cccc(CN2CCCCC2C(=O)Nc2ccc(Oc3ccccc3)nc2)c1 (stereo not drawn) | 2.79% | 3.66 µM [falling, single point] |  |
| Cc1cc(N2CCN(C)CC2)nc2ccc(NC(=O)CCC(=O)NCCCOC(C)C)cc12 | 6.14% | 29.1 µM [rising, single point] |  |
| COc1ccccc1NC(=O)N1CCCC1C(=O)NCCc1ccccc1 (stereo not drawn) | 0.525% | 29.1 µM [falling, single point] |  |
| CCOC(=O)C1CCCN(C2=NC(=O)/C(=C/c3ccc(OC)cc3)S2)C1 (stereo not drawn) |  | 0.651 µM [falling, full curve] |  |
| COc1cccc(/C=C2/Sc3ccc(C(=O)NCCN4CCCC4)cc3NC2=O)c1 | 9.56% | 6.51 µM [rising, single point] | 2.59 µM [rising, partial curve] |

2 records picked at random from those above:

| Structure (SMILES) | cell number change | AC50 [1] | AC50 [2] |
| --- | --- | --- | --- |
| COc1ccccc1NC(=O)N1CCCC1C(=O)NCCc1ccccc1 (stereo not drawn) | 0.525% | 29.1 µM [falling, single point] |  |
| COc1cccc(/C=C2/Sc3ccc(C(=O)NCCN4CCCC4)cc3NC2=O)c1 | 9.56% | 6.51 µM [rising, single point] | 2.59 µM [rising, partial curve] |

Continuation.

| Structure (SMILES) | cell number change | AC50 [1] | AC50 [2] |
| --- | --- | --- | --- |
| Cc1cccc(C(=O)N(c2ccccn2)C(C)c2ccco2)c1 (stereo not drawn) | -13.7% |  |  |
| CCOC(=O)Nc1ccc2c(c1)N(C(=O)CN)c1ccccc1CC2 | 3.86% | 29.1 µM [falling, single point] |  |
| O=C(Nc1ccc(F)cc1F)c1cccn1-c1ncc(C(F)(F)F)cc1Cl | 21% |  | 7.31 µM [rising, partial curve, poor fit] |
| Cc1ccc(NC(=O)NCc2ccncc2)cc1Cl | -1.19% | 6.51 µM [falling, partial curve, poor fit] | 6.51 µM [falling, partial curve, poor fit] |
| NC(=O)c1ccc(NC(=O)CCC(=O)c2cccs2)cc1 | 5.98% | 8.2 µM [falling, partial curve] |  |
| Cc1oc(-c2cccc(Cl)c2)nc1CS(=O)(=O)CC(=O)NCCCN1CCOCC1 | 13% | 29.1 µM [rising, single point] |  |
| Cn1c(SCC(=O)c2ccc(-c3ccccc3)cc2)nnc1-c1ccco1 |  | 0.103 µM [falling, full curve, poor fit] |  |
| CC1(C)Cc2c(sc3ncn(N)c(=N)c23)CO1 | -10.5% |  |  |
| CCOC(=O)NC(=O)/C(C#N)=C\NNc1ncc(C(F)(F)F)cc1Cl | -29.7% | 6.51 µM [rising, single point] |  |
| CC(C)CC(c1nnnn1Cc1ccco1)N1CCN(c2cccc(Cl)c2)CC1 (stereo not drawn) | -33% |  | 20.6 µM [falling, partial curve, poor fit] |
| O=S(=O)(c1ccccc1)N1CCN(c2ncnc3scc(-c4ccccc4)c23)CC1 | 20.2% |  |  |
| Cc1ccc(S(=O)(=O)NCCNC(=O)c2nonc2N)cc1 | 11.3% |  |  |
| Cc1ccc(-c2nc3ncccn3c2NC(=O)C2CC2)cc1 | -7.69% | 0.00651 µM [falling, full curve, poor fit] |  |
| COCCNC(=O)/C(C#N)=C/c1cc(C(C)C)c(OC)cc1C | -42.3% | 20.6 µM [falling, partial curve, poor fit] | 16.4 µM [falling, single point] |
| O=C1CC(/C=C/c2ccc(Cl)cc2)=Nc2ccccc2N1 | 45.9% | 2.91 µM [rising, partial curve] | 2.06 µM [rising, full curve] |
